Experimental findings from PubChem BioAssay AID1347423 (Functional Genomics Laboratory (NCATS/FGL), 2020) are described below.

Screen size: about 52,000 sequences; about 210 (0.4%) were called active.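 The calls were made as follows: active = gene whose silencing raises cell survival under the drug, median off-target-corrected z-score across its silencing RNAs 2 or more; inactive = the rest.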 This is one part of the list.

The test is described as follows: Resistance to Poly (ADP-Ribose) Polymerase inhibitor: Gene Identification via Genome-wide siRNA Screen. The settings on record: mouse BRCA2 R2336H ES cells, olaparib, CellTiter-Glo viability; stronger effect = higher value. Summed up: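 Genome-wide siRNA screen (3 siRNAs/gene, 20 nM) in mouse ES cells carrying hypomorphic BRCA2 R2336H; olaparib 500 nM added 48 h post-transfection, CellTiter-Glo viability 72 h later. Normalized to plate-median negative control; MAD z-scores, gene median, seed-adjusted.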
Consider “GGACAGAUCGAAUGCCAGUTT against 4930402E16Rik”, for which the z-score was inactive: 2.8. Take GGCUCUCAAUGCCUACUUUTT against Pou6f1: the z-score is inactive: 0.624. Then CCAAUGUCUACUCAGAUCUTT against Rab11fip4, with inactive: -0.403; and GCAAGUGCGACUGUAUCUGTT against Gdpd2, with inactive: 1.49.

Regarding GCCUAGGUAGCUGUGUUAUTT against Gucy2f, the z-score was inactive: -0.226. Take GGAUGACUUGUGAAUAUUUTT against Tnfsf7: the z-score was inactive: -0.362.

CGACCCUACAGAGGACAUUTT against BB220380: the z-score was inactive: -0.412. Regarding GGUGAAUCCUUCGUGGACATT against Cml4, the z-score was inactive: -1.69.

On to “CCUGCUAAGUGAAUUUGUGTT against 0610011D08Rik”, for which the z-score was inactive: -1.15.

Regarding GGCUAAAGAUCGCAUUCAGTT against Zdhhc6, the z-score was inactive: 0.138.

Take GGCUUUAUUUAUCAGGAUCTT against Lsamp: the z-score was inactive: 1.29. As to GCCUUGUGGUAUUUGAUCGTT against Fbxw9, the z-score is inactive: 0.673.

GGAAAGCACCCAAGAAAUGTT against Gspt1: the z-score was inactive: 0.504. Take GGAAUGACAAGCAACCAGCTT against Foxp1: the z-score was inactive: -0.162. GGUGUGUUCCCAACUGGUGTT against Olfr1125: the z-score is inactive: 0.74. For GGUUGUGUUAUUCAGAUCUTT against Olfr1316, the z-score was inactive: 0.134. In the case of CGCAUUCAAUUCCUUUCAATT against Aass, the z-score is inactive: -0.108. Turning to GGACAUUUUUGACAUUGAATT against Masp1, the z-score was inactive: 0.0286. As for CCGCUUUGUCAGCAUGUGGTT against ORF61, the figure is inactive: -0.208; as for CGGUGCUCUUACAUAGCAGTT against Appbp2, inactive: -0.226. For “GAUUUAGCUUGGUGAACCGTT against F830014G06Rik”, the z-score is inactive: 1.42. As for GGAACUGCUCGACAAAGCUTT against MGC86034, the figure is inactive: -0.393; as for GGACAGUAUAAAACUCCAATT against Apg3l, inactive: -0.849. For “CCAUUCUUAGUUCACUAUATT against 1190002H23Rik”, the z-score is inactive: 0.112.

With GCAGAAUGGCCUCUUCUACTT against C1qtnf2, the z-score was inactive: 0.0833.

For the sequence GCUUUCCGGAAUACGAGCUTT against Snapc3, the z-score was inactive: -0.406.

Consider CCUCAAGAUAGGUUUCUACTT against Mmp23, for which the z-score is inactive: -0.49. For GGACAAAGUGACUUCUUGUTT against Gng7, the z-score is inactive: 0.363. Consider GGUUGAGGUUGGUAAAAAUTT against Havcr2, for which the z-score is inactive: 0.426.

On to CGCGGACAUCUAUGACAAATT against Phpt1, for which the z-score is inactive: -0.848. As to GGAAUGCAGAAGAUUGUUATT against Olfr745, the z-score was inactive: -0.489.

GGAGAAGAAGAUUUUUGGCTT against Gpr108: the z-score was inactive: -0.111. As for “GGAAUGUUCCGAUUAUUUATT against 4933425K02Rik”, the figure is inactive: 1.79; as for “GCCGCACAUGAACAGAACCTT against 2900006B13Rik”, inactive: 0.235.

Take “GGCCUACGAAGUGCAAAGATT against 2610511M17Rik”: the z-score is inactive: 0.823. As for GCCUUCGACAGUUUCUAGATT against Grca, the z-score was inactive: -0.222.

For CCAGUUCACCAUAUGCUGCTT against Tdpoz3, the z-score is inactive: -0.0743. Turning to GGGAACAGAAAUUAAAGGATT against Fanca, the z-score is inactive: 1.64. GGUCAAAAGACUGUACAUATT against MGC117751: the z-score is inactive: 0.354. In the case of GGAAGAUUUCACAUCUCAGTT against Pdir, the z-score is inactive: 1.82.

As to “GGUACAUGAUCAAUUUAGATT against D10Bwg0791e”, the z-score is inactive: 1.47. For GGCUAAUGUAGUAAACCACTT against Olfr965, the z-score is inactive: -0.891. With GCUUUAACCUGGUUUAGUATT against Pdzx, the z-score was inactive: 0.272. For the sequence GGAACUCAGGGAAUAUAUUTT against Mtnr1a, the z-score was inactive: -1.64. Take “GCCUUUCUGAGGGAUUUUGTT against 2010003J03Rik”: the z-score is inactive: 0.486. As for CCCUAAGUUACCUCUUUCGTT against Ndufs8, the figure is inactive: 0.201; as for CCACCUAAUUUCCUAGAUCTT against Gm604, inactive: -0.727. With GGAUCUCAGAAGCUUAGUUTT against Sca7, the z-score is inactive: -0.489.

As to CAUUGGAAAGAAUGGCCUUTT against Olfr890, the z-score is inactive: 0.109. With GGGUGACAUGAUUUUAACUTT against Fbxo18, the z-score is inactive: 0.856. In the case of GCUUAAGUGGAGGUCCCUUTT against AW125688, the z-score was inactive: -0.89. In the case of “GUAUGUUCAUAUGGUUUUCTT against 2900010J23Rik”, the z-score is inactive: -1.7.

CCGUCAUGACUUUGUUCUATT against Plcg1: the z-score is inactive: -0.455.

In the case of GAAAAAGGGUGACAAGACUTT against Nppc, the z-score is inactive: 0.969. As for CCCAGUUCACAUUAAAACATT against Tloc1, the figure is inactive: 0.338; as for GGGACAGAACUUAAAUGUATT against Mup4, inactive: -0.696. Consider GGAUUGUAAUAAUGGAGCCTT against H2-M10.4, for which the z-score was inactive: -0.56.

In the case of CCUCGUGUUACUUUUACCCTT against Olfr13, the z-score is inactive: -0.0366.

GGAUGUAGAUGUUGGUUUUTT against Kcnj14: the z-score was inactive: 1.37. As for GGAUUGCCCUGUUGUGGUGTT against Snx17, the z-score is inactive: 0.27. In the case of CGGUAUUGGUCCAGAAGUGTT against Dte, the z-score was inactive: -1.73.

Regarding GGACUCAAGAGAAAUUCAATT against Card15, the z-score is inactive: 2.32. CGGUUAAAAGCCCUCAGCATT against Olfr592: the z-score is inactive: -1.24. GCAUAAGGUGGUUAAUGACTT against Rps15a: the z-score is inactive: 1.25. Take CGAAGUUGUUGAGAACUCATT against Pcdhb18: the z-score was inactive: -0.681. In the case of “GCUUACUUGGUGCUCGUGUTT against 4832428D23Rik”, the z-score was inactive: -1.01.
